From article PMC8147293, “Library of Selenocyanate and Diselenide Derivatives as In Vivo Antichagasic Compounds Targeting Trypanosoma cruzi Mitochondrion” (Pharmaceuticals, 2021)

What was measured:
[1] = test system: epimastigotes of T. cruzi Arequipa strain; experiment: Screening against extracellular epimastigotes (resazurin); format: cell-based, Trypanosoma cruzi; details: for SI / number of times that compounds exceed the reference drug SI (in brackets): Table S1; for SI: IC50 Vero cells / IC50 epimastigote; for number of times that compounds exceed the reference drug SI (in brackets): epimastigote; for number of times that compounds exceed the reference drug SI (in brackets) / number of times that compounds exceed the reference drug SI, Epimast. (in brackets): versus BZN
Description: Trypanocidal activity against epimastigotes of T. cruzi Arequipa strain (MHOM/Pe/2011/Arequipa, discrete typing unit V) was tested as previously described. In short, 5 × 10^5 epimastigotes·mL^−1 were treated by adding the tested compounds at a concentration range from 100 to 0.2 µM in 96-well microplates (200 µL·well^−1) for 48 h. Subsequently, resazurin sodium salt (Sigma-Aldrich) was added to be incubated for further 24 h. Finally, the absorbance was measured, and the trypanocidal activity was expressed as the IC50 (inhibitory concentration 50) using GraphPad Prism 6 software. Each compound concentration was tested in triplicate in three independent experiments.

[2] = test system: Trypanosoma cruzi intracellular amastigotes; experiment: Screening against intracellular amastigotes in Vero cells (Giemsa counting); format: cell-based; details: versus BZN
Description: Trypanocidal activity against amastigotes was determined according to the literature reported previously. […]. […] Each compound concentration was tested in triplicate in four separate determinations.

[3] = test system: Trypanosoma cruzi bloodstream trypomastigotes (BTs); experiment: Screening against bloodstream trypomastigotes (resazurin); format: cell-based; details: versus BZN
Description: 2 × 10^6 Bloodstream trypomastigotes (BTs), obtained by cardiac puncture from infected BALB/c mice as previously described, were treated by adding the tested compounds at a concentration range from 50 to 0.1 µM in 96-well microplates (200 µL·well^−1) at 37 °C. After 24 h of treatment, resazurin sodium salt (Sigma-Aldrich) was added to be incubated for further 4 h. Finally, trypanocidal activity was determined following the same procedure as described to assess the trypanocidal activity in the epimastigotes. Each compound concentration was tested in triplicate in three independent experiments.

SMILES | SI [1] | number of times that compounds exceed the reference drug SI (in brackets) [1] | number of times that compounds exceed the reference drug SI, Epimast. (in brackets) [1] | number of times that compounds exceed the reference drug SI, Amast. (in brackets) [2] | number of times that compounds exceed the reference drug SI, Trypomast. (in brackets) [3]
N#C[Se]Cc1ccc(Br)cc1 [compound 1] | 2 | 0 | – | – | –
Brc1ccc(C[Se][Se]Cc2ccc(Br)cc2)cc1 [compound 2] | 1 | 0 | – | – | –
N#C[Se]Cc1ccccc1 [compound 3] | 1 | 0 | – | – | –
c1ccc(C[Se][Se]Cc2ccccc2)cc1 [compound 4] | 1 | 0 | – | – | –
N#C[Se]Cc1ccc([N+](=O)[O-])cc1 [compound 5] | 1 | 0 | – | – | –
O=[N+]([O-])c1ccc(C[Se][Se]Cc2ccc([N+](=O)[O-])cc2)cc1 [compound 6] | 2 | 0 | – | – | –
N#C[Se]Cc1ccc(C(F)(F)F)cc1 [compound 7] | 1 | 0 | – | – | –
FC(F)(F)c1ccc(C[Se][Se]Cc2ccc(C(F)(F)F)cc2)cc1 [compound 8] | – | – | 5 | 6 | 4
CSc1ccc(C[Se]C#N)cc1 [compound 9] | 6 | 1 | – | – | –
CSc1ccc(C[Se][Se]Cc2ccc(SC)cc2)cc1 [compound 10] | – | – | 15 | 11 | 11
Cc1ccc(C[Se]C#N)cc1 [compound 11] | – | – | 4 | 2 | 2
Cc1ccc(C[Se][Se]Cc2ccc(C)cc2)cc1 [compound 12] | 0 | 0 | – | – | –
N#C[Se]Cc1ccc(C#N)cc1 [compound 13] | 7 | 1 | – | – | –
N#Cc1ccc(C[Se][Se]Cc2ccc(C#N)cc2)cc1 [compound 14] | 0 | 0 | – | – | –
N#C[Se]Cc1ccccc1[N+](=O)[O-] [compound 15] | – | – | 4 | 4 | 2
O=[N+]([O-])c1ccccc1C[Se][Se]Cc1ccccc1[N+](=O)[O-] [compound 16] | 1 | 0 | – | – | –
N#C[Se]Cc1cccc([N+](=O)[O-])c1 [compound 17] | 2 | 0 | – | – | –
O=[N+]([O-])c1cccc(C[Se][Se]Cc2cccc([N+](=O)[O-])c2)c1 [compound 18] | 5 | 1 | – | – | –
N#C[Se]Cc1ccccc1C#N [compound 19] | 0 | 0 | – | – | –
N#Cc1ccccc1C[Se][Se]Cc1ccccc1C#N [compound 20] | – | – | 3 | 2 | 3
N#C[Se]Cc1cccc(C#N)c1 [compound 21] | – | – | 4 | 3 | 3
N#Cc1cccc(C[Se][Se]Cc2cccc(C#N)c2)c1 [compound 22] | 0 | 0 | – | – | –
N#C[Se]Cc1cc2c(cc1Br)OCO2 [compound 23] | 3 | 1 | – | – | –
Brc1cc2c(cc1C[Se][Se]Cc1cc3c(cc1Br)OCO3)OCO2 [compound 24] | 1 | 0 | – | – | –

SMILES | SI [1] | number of times that compounds exceed the reference drug SI (in brackets) [1] | number of times that compounds exceed the reference drug SI, Epimast. (in brackets) [1] | number of times that compounds exceed the reference drug SI, Amast. (in brackets) [2] | number of times that compounds exceed the reference drug SI, Trypomast. (in brackets) [3]
N#C[Se]Cc1cccc2cccnc12 [compound 25] | 1 | 0 | – | – | –
c1cnc2c(C[Se][Se]Cc3cccc4cccnc34)cccc2c1 [compound 26] | 3 | 1 | – | – | –
N#C[Se]Cc1ccc2ccccc2n1 [compound 27] | 0 | 0 | – | – | –
N#C[Se]Cc1c2ccccc2cc2ccccc12 [compound 28] | 8 | 2 | – | – | –
N#C[Se]Cc1nc2ccccc2nc1C[Se]C#N [compound 29] | 2 | 0 | – | – | –
COc1cc2oc(=O)cc(C[Se]C#N)c2cc1OC [compound 30] | 4 | 1 | – | – | –
N#C[Se]CC(=O)C12CC3CC(CC(C3)C1)C2 [compound 31] | 6 | 1 | – | – | –
O=S(=O)(Nc1ccc([Se][Se]c2ccc(NS(=O)(=O)c3ccc(Br)cc3)cc2)cc1)c1ccc(Br)cc1 [compound 33] | 5 | 1 | – | – | –
O=S(=O)(Nc1ccc([Se][Se]c2ccc(NS(=O)(=O)c3ccc(Cl)cc3)cc2)cc1)c1ccc(Cl)cc1 [compound 34] | 0 | 0 | – | – | –
O=S(=O)(Nc1ccc([Se][Se]c2ccc(NS(=O)(=O)c3ccccc3Cl)cc2)cc1)c1ccccc1Cl [compound 35] | 2 | 0 | – | – | –
O=S(=O)(Nc1ccc([Se][Se]c2ccc(NS(=O)(=O)c3ccc(F)cc3)cc2)cc1)c1ccc(F)cc1 [compound 36] | 6 | 1 | – | – | –
O=S(=O)(Nc1ccc([Se][Se]c2ccc(NS(=O)(=O)c3ccccc3F)cc2)cc1)c1ccccc1F [compound 37] | 0 | 0 | – | – | –
COc1ccc(S(=O)(=O)Nc2ccc([Se][Se]c3ccc(NS(=O)(=O)c4ccc(OC)cc4)cc3)cc2)cc1 [compound 38] | 1 | 0 | – | – | –
O=[N+]([O-])c1ccc(S(=O)(=O)Nc2ccc([Se][Se]c3ccc(NS(=O)(=O)c4ccc([N+](=O)[O-])cc4)cc3)cc2)cc1 [compound 39] | 0 | 0 | – | – | –
N#Cc1ccc(S(=O)(=O)Nc2ccc([Se][Se]c3ccc(NS(=O)(=O)c4ccc(C#N)cc4)cc3)cc2)cc1 [compound 40] | 4 | 1 | – | – | –
O=S(=O)(Nc1ccc([Se][Se]c2ccc(NS(=O)(=O)c3ccccc3)cc2)cc1)c1ccccc1 [compound 41] | 4 | 1 | – | – | –
O=S(=O)(Nc1ccc([Se][Se]c2ccc(NS(=O)(=O)c3ccc(C(F)(F)F)cc3)cc2)cc1)c1ccc(C(F)(F)F)cc1 [compound 42] | 6 | 1 | – | – | –
Cc1ccc(S(=O)(=O)Nc2ccc([Se][Se]c3ccc(NS(=O)(=O)c4ccc(C)cc4)cc3)cc2)cc1 [compound 43] | – | – | 3 | 2 | 3
O=S(=O)(Nc1ccc([Se][Se]c2ccc(NS(=O)(=O)c3ccc4ccccc4c3)cc2)cc1)c1ccc2ccccc2c1 [compound 44] | 6 | 1 | – | – | –
O=S(=O)(Nc1ccc([Se][Se]c2ccc(NS(=O)(=O)c3cccc4cccnc34)cc2)cc1)c1cccc2cccnc12 [compound 45] | 8 | 2 | – | – | –
O=S(=O)(Nc1ccc([Se][Se]c2ccc(NS(=O)(=O)c3ccc(-c4ccccc4)cc3)cc2)cc1)c1ccc(-c2ccccc2)cc1 [compound 46] | – | – | 4 | 2 | 3
Cn1ccnc1S(=O)(=O)Nc1ccc([Se][Se]c2ccc(NS(=O)(=O)c3nccn3C)cc2)cc1 [compound 47] | – | – | 2 | 2 | 2
O=S(=O)(Nc1ccc([Se][Se]c2ccc(NS(=O)(=O)c3cccs3)cc2)cc1)c1cccs1 [compound 48] | 9 | 2 | – | – | –
